Results taken from article PMC5172536.
These are yes or no findings as the source states them, for the method shown. In cells and extracts the contact can be indirect. Some entries that bind do so weakly or less than the wild type.

The chains behind the UniProt entries cited, without tags or fusion partners.
UniProt Q9UBN7: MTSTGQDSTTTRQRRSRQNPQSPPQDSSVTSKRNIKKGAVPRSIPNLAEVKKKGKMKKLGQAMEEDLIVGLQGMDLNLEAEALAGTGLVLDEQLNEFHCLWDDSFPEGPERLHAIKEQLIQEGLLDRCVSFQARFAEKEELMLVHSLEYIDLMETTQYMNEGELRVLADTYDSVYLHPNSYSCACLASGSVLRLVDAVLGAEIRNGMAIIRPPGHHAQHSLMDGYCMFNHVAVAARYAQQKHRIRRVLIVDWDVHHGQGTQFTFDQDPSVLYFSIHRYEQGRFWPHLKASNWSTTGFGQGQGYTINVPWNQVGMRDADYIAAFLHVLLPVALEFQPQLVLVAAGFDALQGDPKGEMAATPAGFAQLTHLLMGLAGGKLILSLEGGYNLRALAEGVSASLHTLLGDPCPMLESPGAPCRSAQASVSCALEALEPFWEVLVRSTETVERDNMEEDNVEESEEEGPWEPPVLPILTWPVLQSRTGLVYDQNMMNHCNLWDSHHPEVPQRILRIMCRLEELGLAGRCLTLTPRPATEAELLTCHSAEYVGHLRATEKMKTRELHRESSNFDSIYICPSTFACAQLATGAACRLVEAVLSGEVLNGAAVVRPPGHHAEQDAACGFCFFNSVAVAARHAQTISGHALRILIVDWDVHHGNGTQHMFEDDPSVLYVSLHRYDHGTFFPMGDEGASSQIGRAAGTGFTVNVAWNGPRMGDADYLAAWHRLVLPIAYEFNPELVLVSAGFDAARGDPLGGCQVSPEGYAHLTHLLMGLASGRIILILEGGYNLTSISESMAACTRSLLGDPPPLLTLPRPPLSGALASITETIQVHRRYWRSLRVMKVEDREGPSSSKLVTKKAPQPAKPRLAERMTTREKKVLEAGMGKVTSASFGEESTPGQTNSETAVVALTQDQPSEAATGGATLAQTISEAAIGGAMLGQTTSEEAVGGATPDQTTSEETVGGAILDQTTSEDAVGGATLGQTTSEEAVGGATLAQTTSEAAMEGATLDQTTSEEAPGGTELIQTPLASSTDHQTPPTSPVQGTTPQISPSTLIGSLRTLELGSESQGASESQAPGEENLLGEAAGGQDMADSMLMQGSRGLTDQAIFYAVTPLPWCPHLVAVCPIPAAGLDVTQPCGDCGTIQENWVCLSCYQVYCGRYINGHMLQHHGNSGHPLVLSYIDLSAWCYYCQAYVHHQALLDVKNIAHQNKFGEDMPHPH

Target: T1, IκB kinase complex-associated protein (IKAP) (human (endogenous in HEK 293nt)) (UniProt O95163)
T1 sequence: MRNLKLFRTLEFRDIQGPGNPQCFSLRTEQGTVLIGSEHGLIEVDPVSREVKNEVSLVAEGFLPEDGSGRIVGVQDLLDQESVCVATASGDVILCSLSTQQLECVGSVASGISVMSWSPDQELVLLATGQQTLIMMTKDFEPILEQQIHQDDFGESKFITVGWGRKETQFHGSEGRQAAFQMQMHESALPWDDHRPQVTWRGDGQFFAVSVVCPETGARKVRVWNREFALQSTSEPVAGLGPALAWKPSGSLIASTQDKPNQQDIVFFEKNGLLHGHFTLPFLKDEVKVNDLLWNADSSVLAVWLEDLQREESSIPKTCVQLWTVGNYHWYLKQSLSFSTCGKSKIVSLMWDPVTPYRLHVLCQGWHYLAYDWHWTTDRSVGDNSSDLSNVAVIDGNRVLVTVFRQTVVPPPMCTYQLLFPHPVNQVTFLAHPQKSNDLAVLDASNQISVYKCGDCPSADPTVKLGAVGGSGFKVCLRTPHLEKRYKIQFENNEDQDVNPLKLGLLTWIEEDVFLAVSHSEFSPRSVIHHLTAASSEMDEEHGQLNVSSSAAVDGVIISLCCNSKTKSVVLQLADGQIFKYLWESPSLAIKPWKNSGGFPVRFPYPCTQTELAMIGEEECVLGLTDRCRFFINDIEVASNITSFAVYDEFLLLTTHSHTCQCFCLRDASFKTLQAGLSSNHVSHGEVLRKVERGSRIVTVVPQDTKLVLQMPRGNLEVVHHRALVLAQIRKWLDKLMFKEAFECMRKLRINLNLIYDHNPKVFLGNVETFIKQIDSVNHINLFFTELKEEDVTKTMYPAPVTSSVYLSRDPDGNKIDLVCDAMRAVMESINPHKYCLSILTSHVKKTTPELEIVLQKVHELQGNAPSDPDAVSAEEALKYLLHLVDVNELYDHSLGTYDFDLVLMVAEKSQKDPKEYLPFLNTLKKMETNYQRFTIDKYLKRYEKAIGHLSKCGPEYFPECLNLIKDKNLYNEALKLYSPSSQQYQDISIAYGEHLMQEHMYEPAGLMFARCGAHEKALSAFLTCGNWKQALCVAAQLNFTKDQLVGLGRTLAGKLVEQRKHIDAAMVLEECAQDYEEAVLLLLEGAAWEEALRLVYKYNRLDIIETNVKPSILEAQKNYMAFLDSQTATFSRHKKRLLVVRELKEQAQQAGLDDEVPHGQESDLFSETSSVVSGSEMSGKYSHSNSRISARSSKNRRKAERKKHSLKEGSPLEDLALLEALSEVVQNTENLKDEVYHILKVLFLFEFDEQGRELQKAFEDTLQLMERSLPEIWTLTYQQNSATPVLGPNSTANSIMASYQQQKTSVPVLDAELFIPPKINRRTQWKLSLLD
Test: co-IP; endogenous IKAP precipitated with anti-IKAP antibody on protein A Dynabeads from HEK 293nt lysate; cells crosslinked with 0.1% formaldehyde, sonicated; IP buffer 50 mM HEPES pH 7.6, 500 mM LiCl, 1 mM EDTA, 0.7% DOC, 1% NP-40, 0.1% SDS; 12 h at 4°C; western blot

binding: binds
Substance: histone deacetylase 6 (HDAC6) (from UniProt Q9UBN7 1-1215) (enzyme)
